PubChem BioAssay AID602196 – INSERM, 2012
The deposit covers about 23,000 reagents; shown is an unselected part. 455 of them (2%) count as active. 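Active includes both protection and sensitisation; some change values fall well beyond the stated -50 to +50 range.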 Unmarked entries are inactive. Reagents against one gene are numbered here. Not all columns of the deposit are shown. Not given: the amount of reagent.

Screen: 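Genes whose knock-down alters cisplatin killing of lung cancer cells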
Cells: human A549 lung cancer cells
Reagent: siRNA pair against human genes
Time to read-out: 48 h transfection before cisplatin; time from cisplatin to read-out not stated
Challenge: cisplatin at a dose killing half of control-siRNA cells; exact dose and duration not given
Measured: 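Shift in cisplatin death relative to control siRNA, from -50 (all cells die) to +50 (no cells die); siRNAs harmful on their own scored 0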
Reading the numbers: two-siRNA summed score (-2 to +2): higher = both siRNAs protect from cisplatin killing; -2 means both sensitise
Hit rule: 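siRNAs harmful alone (LDH or WST-1) get 0; others get +1 for less and -1 for more cisplatin killing; genes are active when the two siRNAs give the same sign, summing to ±2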
Calls: active = both siRNAs shift cisplatin killing the same way; inactive = no consistent shift, or siRNA harmful alone

Which result is listed for PPP1R12A (protein phosphatase 1 regulatory subunit 12A)?
two-siRNA summed score (-2 to +2): 0

For BLVRA (biliverdin reductase A), what does the deposit list?
two-siRNA summed score (-2 to +2): 1

With PIP4K2A (phosphatidylinositol-5-phosphate 4-kinase type 2 alpha), how do the results read?
two-siRNA summed score (-2 to +2): 1

With TENM1 (teneurin transmembrane protein 1), how do the results read?
two-siRNA summed score (-2 to +2): 1

How did the screen score CCDC190 (coiled-coil domain containing 190)?
two-siRNA summed score (-2 to +2): 0

With PAM16 (presequence translocase associated motor 16), what does the deposit list?
two-siRNA summed score (-2 to +2): 0

With LOC115749, what was measured?
two-siRNA summed score (-2 to +2): 0

How did the screen score CCDC178 (coiled-coil domain containing 178)?
two-siRNA summed score (-2 to +2): 0

Part of the list above, set out differently:
{"target gene":"BLVRA (biliverdin reductase A)","reagent":1,"two-siRNA summed score (-2 to +2)":1}
{"target gene":"PIP4K2A (phosphatidylinositol-5-phosphate 4-kinase type 2 alpha)","reagent":1,"two-siRNA summed score (-2 to +2)":1}

Additional entries:
For PMCHL1 (pro-melanin concentrating hormone like 1 (pseudogene)) #1, how do the results read?
two-siRNA summed score (-2 to +2): 0

With PMCHL1 (pro-melanin concentrating hormone like 1 (pseudogene)) #2, what does the deposit list?
two-siRNA summed score (-2 to +2): 1

With CUEDC1 (CUE domain containing 1), how do the results read?
two-siRNA summed score (-2 to +2): 0

With CENPN (centromere protein N), what does the deposit list?
two-siRNA summed score (-2 to +2): 0
